These are yes or no findings as the source states them, for the method shown.
Target: EsaB (Staphylococcus aureus) (UniProt Q99WU1)
Assay: SEC; final size exclusion step, 24 ml Superdex75 column, 20 mM Tris pH 7.8, 100 mM NaCl, calibrated with molecular mass standards; both purified

Substance: EsaB (from UniProt Q99WU1 1-80)
- binding: no binding
